Measurements reported in publication PMC5996148.
This is one part of the list.

Legend:
Test in all cases: protein microarray (ProtoArray v5.0), streptavidin-Alexa Fluor 647
Settings in all cases: 3'-biotin; 20 mM Tris (pH 7.5), 5 mM MgCl2, 100 mM KCl, 0.1% Tween-20, A/T-rich and random oligonucleotide blockers; temperature not stated; high values mean tight binding
[1] = test system: LMX1A (human)
[2] = test system: LOC113386 (human)
[3] = test system: LOC124220 (human)
[4] = test system: LOC124446 (human)
[5] = test system: LOC144631 (human)
[6] = test system: LOC149267 (human)
[7] = test system: LOC151534 (human)
[8] = test system: LOC152024 (human)
[9] = test system: LOC153684 protein (human)
[10] = test system: LOC170425 (human)

## GGGAGGCTGAGGCAGG [G4-1 biotinylated (PQS2)]
[1]
  binding signal: -0.349 z-score
[2]
  binding signal: -0.343 z-score
[3]
  binding signal: -0.306 z-score
[4]
  binding signal: -0.327 z-score
[5]
  binding signal: -0.341 z-score
[6]
  binding signal: -0.322 z-score
[7]
  binding signal: -0.252 z-score
[8]
  binding signal: -0.281 z-score
[9]
  binding signal: 3.85 z-score
[10]
  binding signal: -0.327 z-score
